# Test results as given in PubChem BioAssay AID2685 (National Center for Advancing Translational Sciences (NCATS), 2010).
# Hit rate of the full screen: of about 320,000 compounds, about 2,100 (0.66%) were called active. Inconclusive results, whose numbers are uncertain, are shown with a selection of clear calls. The call rests on the fitted dose curve; in most records, active means well fitted inhibition curve with a large enough effect in the signal ratio, with a control signal flat (not every such curve was filed as active); inconclusive means small, poorly fitted or top-dose-only effect, or effect the other way, or a change in a side signal; inactive means flat fitted curve, though single readings scatter; the % refers to the signal ratio. Potencies beside an inconclusive call are fits to weak or partial responses and may not hold up.
# Experiment: qHTS Assay for Lipid Storage Modulators in Drosophila S3 Cells
# Details: BODIPY lipid droplet fluorescence, 18-24 h, cells fed with added oleic acid; lipid storage change, negative = inhibition: at 46.1 µM (top of the series) unless noted
# Procedure, shortened: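 Laser-scanning cytometry quantifies lipid droplet accumulation (500–530 nm total intensity; droplet/cell object ratio) in oleic acid-fed (400 uM added) Drosophila S3 cells treated with a concentration series. 20 uM Triacsin C defined 100% inhibition.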
# On the % scale 0 is the no-effect control and ±100 the full control effect; potency means the concentration at half of the fitted maximal effect.
SMILES,"lipid storage change, negative = inhibition",Potency,outcome
CCCCN1C[C@H](Cc2ccccc2)[C@@H](CC(=O)NCc2ccc(OC)cc2)C1=O,inactive: -12.4%,,
O=C(CN1C2CCCC1CC(NC(=O)c1ccccc1)C2)Nc1ccccc1C(F)(F)F (centres undefined),,"inconclusive: 29.1 µM [activator, single point]",
COc1cccc(CC(NC(C)=O)C(=O)NC2CCN(S(=O)(=O)c3cccc4ccccc34)CC2)c1 (centres undefined),inconclusive: -30%,,
COc1ccc(C(O)Cn2ccsc2=NC(C)=O)cc1 (centres undefined),inconclusive: 17.5%,,
CC(C)c1nc2sc(C(=O)O)c(N)c2c2c1CCCC2,,"inconclusive: 0.411 µM [falling, single point]",
CCOc1cc(S(=O)(=O)N2CCC(c3nc4ccccc4s3)CC2)c(OCC)cc1S(=O)(=O)N1CCCCC1,inconclusive: 17.5%,,
Cc1ccc(S(=O)(=O)Nc2cccc(C(=O)N3CCC(C(N)=O)CC3)c2)cc1,inconclusive: 15.6%,,
CCOc1cc2[nH]c(=S)n(C3CC3)c(=O)c2cc1OCC,inconclusive: -6.59%,,
Cc1ccc(C(=O)NNC(=O)c2ccncc2)cc1S(=O)(=O)N1CCCCC1,,"inconclusive: 3.66 µM [activator, partial curve]",
O=C(Cc1ccc(F)cc1)NCc1cccnc1,inconclusive: -16.7%,,
COc1ccc(NC(=O)COC(=O)c2ccc(S(=O)(=O)N(C)c3ccccc3OC)cc2)cc1OC,inconclusive: -7.06%,,
CC(C)(C)Nc1nc(Nc2ccc([N+](=O)[O-])cc2)nc(NC(C)(C)C)n1,inconclusive: 28.1%,,
O=C(CO/N=C1\CCCc2nonc21)Nc1ccccc1Cl,inconclusive: 26.5%,,
C=CCN1C(=O)c2ccc(C(=O)NCC(c3ccccc3)N(C)C)cc2C1=O (centres undefined),,"inconclusive: 20.6 µM [falling, single point]",
Cc1cc(C)n2nc(SCC(=O)Nc3ccccc3C)nc2n1,inconclusive: 1.54%,,
OCCCc1nc2n(n1)C(c1ccccc1Cl)C=C(c1cccs1)N2 (centres undefined),,"inconclusive: 0.58 µM [rising, full curve, poor fit]",
Cc1c(S(=O)(=O)N2CCN(c3cccc(Cl)c3)CC2)c(=O)n(C)c(=O)n1C,,"inconclusive: 20.6 µM [activator, single point]",
Cn1ccnc1C(=O)c1cc(=O)c2ccccc2o1,inconclusive: -14.2%,,
CNNC(=S)Nc1cccc(C(F)(F)F)c1,inconclusive: 10.9%,,
COc1cccc(CN2CCN(Cc3cccc(Oc4ccccc4)c3)CC2)c1OC,,"inconclusive: 20.6 µM [activator, single point]",
Clc1ccc(C2=NCCN2)cc1,inconclusive: -2.32%,,
CCOC(=O)c1cnc2c(-c3ccccc3OC)c(C)nn2c1C,inconclusive: -0.479%,,
O=C(CNc1cccc(S(=O)(=O)N2CCOCC2)c1)Nc1ccccc1F,,,inactive [at 46.1 µM]
COCCN(C(=O)COc1ccccc1C#N)c1c(N)n(Cc2ccccc2)c(=O)[nH]c1=O,inconclusive: -56.3%,,
Cc1ccc2c(c1)N(C(=O)CCC(=O)NCCCN1CCOCC1)CC(C)O2 (centres undefined),,"inconclusive: 0.651 µM [activator, full curve]",

SMILES,"lipid storage change, negative = inhibition",Potency,outcome
Cc1ccc(-c2cc3nn(-c4ccccc4)c(N)c3c(=O)o2)cc1,,"inconclusive: 23.1 µM [falling, single point]",
CCc1nn(CCCC(=O)N2CCc3ccccc3C2)c(=O)c2cc3occc3n12,,"inconclusive: 11.6 µM [falling, single point]",
COc1ccc2c(c1)C(=O)N1[C@H]3c4cc(OC)ccc4OC[C@@H]3[C@H](c3ccccc3)[C@]1(C)C(=O)N2,,"inconclusive: 18.4 µM [falling, single point]",
Cc1cc(C)nc(/N=C(/NC(=O)Nc2cccc(Cl)c2)Nc2ccccc2)n1,inconclusive: -1.28%,,
Nc1nnnn1/N=C/c1cccc(Br)c1,inconclusive: -11.1%,,
COc1ccc(C)cc1S(=O)(=O)Nc1cc2c3c(c1)CCN3C(=O)CC2,,"inconclusive: 6.51 µM [activator, single point]",
COc1cc(SC)ccc1C(=O)Nc1ccc(C)cc1C,inconclusive: 59.6%,,
O=C(CSc1nnc(-c2ccccc2)n1Cc1ccccc1)N1CCCC1,inconclusive: 53.3%,,
COc1cccc(C2CC(c3cccs3)=NN2C(=O)CSc2nc3ccccc3s2)c1OC (centres undefined),,"inconclusive: 13 µM [falling, partial curve, poor fit]",
CC(=O)Nc1ccc(S(=O)(=O)N2CCN(S(=O)(=O)c3ccc(F)c(F)c3F)CC2)cc1,inconclusive: -91.3%,,
Cc1cc(C)c2[nH]c(=O)c(CN(CC3CCCO3)C(=S)Nc3ccccc3)cc2c1 (centres undefined),inconclusive: 20.6%,,
CCOc1ccc(NC(=O)CSc2nnc(C)n2C2CC2)cc1S(=O)(=O)N1CCCC1,inconclusive: -19.1%,,
O=C(COC(=O)c1ccc(Cl)nc1)NCc1ccc2c(c1)OCO2,inconclusive: 20.7%,,
Cc1nnc(SCC2=C(C(=O)O)N3C(=O)C(NC(=O)Cn4nc(C(F)F)cc4C)C3SC2)s1 (centres undefined),,"inconclusive: 29.1 µM [cytotoxic, single point]",
COc1cccc(NC(=O)CSc2nc3ccccc3n2C)c1,inconclusive: -16.3%,,
COC(=O)c1ccc(C(=O)OC)c(NC(=S)N2CCCCC2C)c1 (centres undefined),,"inconclusive: 10.3 µM [activator, partial curve, poor fit]",
Cc1ccc(Cn2nnc3c(=O)[nH]c(C4CCN(S(=O)(=O)c5ccc(S(=O)(=O)NC6CC6)cc5)CC4)nc32)cc1,,"inconclusive: 0.58 µM [activator, single point]",
COc1ccc(OC)c(NS(=O)(=O)c2ccc(Cl)nc2)c1,inactive: -10.3%,,
Cc1ncoc1C(=O)Nc1ccccc1C(N)=O,inconclusive: 78.6%,,
CS(=O)(=O)NCCOc1ccc(S(=O)(=O)NCCOc2ccccc2)cc1,inconclusive: 8.38%,,
CC1CCN(C(=O)C2CCN(CCCc3ccccc3)CC2)CC1,,"inconclusive: 29.1 µM [activator, single point]",
CC1(C)CC(C(CCN(Cc2ccccc2)C(=O)c2ccco2)c2ccc(F)cc2)CCO1 (centres undefined),,"inconclusive: 23.1 µM [falling, partial curve, poor fit]",
CC(=O)Nc1ccc(S(=O)(=O)NCCCCNS(=O)(=O)c2ccc(NC(C)=O)cc2)cc1,inconclusive: 33.9%,,
CCCC(=O)c1cn(CC(=O)OC)c2ccccc12,inconclusive: -53.7%,,
O=C(CSc1nc2ccc(S(=O)(=O)N3CCOCC3)cc2[nH]1)N1CCOCC1,,active: 18.4 µM,

# Fetched by compound from the entries so far (3):
SMILES,"lipid storage change, negative = inhibition",Potency,outcome
Cc1ccc(Cn2nnc3c(=O)[nH]c(C4CCN(S(=O)(=O)c5ccc(S(=O)(=O)NC6CC6)cc5)CC4)nc32)cc1,,"inconclusive: 0.58 µM [activator, single point]",
COc1ccc(C)cc1S(=O)(=O)Nc1cc2c3c(c1)CCN3C(=O)CC2,,"inconclusive: 6.51 µM [activator, single point]",
CC(C)(C)Nc1nc(Nc2ccc([N+](=O)[O-])cc2)nc(NC(C)(C)C)n1,inconclusive: 28.1%,,

# (continued)

SMILES,"lipid storage change, negative = inhibition",Potency,outcome
CCN(CC)c1ccc2cc(NC(=O)CCC(=O)O)c(=O)oc2c1,inconclusive: 10.6%,,
NC1=NC[C@H](Cc2ccccc2)N1CCc1cc(C(F)(F)F)cc(C(F)(F)F)c1,inconclusive: -23.4%,,
CC(=O)NS(=O)(=O)c1ccc(NC(=S)NC(=O)C2CCC2)cc1,inconclusive: 196%,,
Cn1nc(C(F)(F)F)c(C(=O)Nc2ccc(F)cc2F)c1Sc1ccc(Cl)cc1,inconclusive: 32%,,
CCCC(=NCc1ccccc1)C1=C(O)C(C(=O)OC)C(C)(C)CC1=O (centres undefined),,"inconclusive: 0.164 µM [activator, full curve, poor fit]",
C=CCN1C(=O)/C(=C2/Sc3ccccc3N2C)SC1=Nc1ccccc1C,,"inconclusive: 5.8 µM [activator, full curve]",
O=C(Nc1cccn2ncnc12)C(F)(F)F,inconclusive: -52%,,
O=C(CSc1nc2ccccc2[nH]1)c1c[nH]c2ccccc12,inconclusive: -42.4%,,
COc1ccc(N/C=C/C(=C(C#N)C#N)N(C)C)cc1,inconclusive: -11.2%,,
O=C(OCc1ccc(Br)cc1)c1ccncc1,,"inconclusive: 1.84 µM [falling, partial curve]",
CCCCc1c(C(=O)O)cc(OC)cc1C(=O)O,inconclusive: -4.01%,,
O=C(COC(=O)C1(c2ccc(Cl)cc2)CCCC1)Nc1ncc(C(F)(F)F)cc1Cl,,"inconclusive: 23.1 µM [falling, single point]",
COC(=O)CCC(=O)Nc1ccc(NC(=O)CCC(=O)OC)cc1,,"inconclusive: 29.1 µM [cytotoxic, single point]",
CCOC(=O)c1c(S(=O)(=O)Nc2ccc(C)cn2)c(C)n(C)c1C,inconclusive: 18.6%,,
CCCN1C(=O)C(Cc2nc3ccccc3c(=O)n2-c2ccccc2)c2cc(C)ccc21 (centres undefined),,"inconclusive: 5.17 µM [activator, partial curve]",
N=c1c2c3c(sc2ncn1N)CCCC3,inconclusive: -5.92%,,
CC(=O)N(Cc1ccc(F)cc1)C1=C(NCCc2ccccc2)C(=O)c2ccccc2C1=O,,"inconclusive: 14.6 µM [cytotoxic, partial curve]",
CCc1c(C)[nH]c2ccccc2c1=O,inconclusive: -4.14%,,
CC(=O)N1CCc2cc(S(=O)(=O)NCCC(=O)NCCc3ccc(Cl)cc3)ccc21,,"inconclusive: 29.1 µM [activator, single point]",
Cc1ccc(Cn2ccc(NC(=O)c3cc(-c4cccc(Cl)c4)on3)n2)cc1,,"inconclusive: 16.4 µM [cytotoxic, single point]",
C/C(=C\c1ccccc1)C(=O)NCc1ccco1,inconclusive: 51.5%,,
CCCCNC(=O)CC1N=C2c3ccccc3N=C(SCC(=O)Nc3cccc(OC)c3)N2C1=O (centres undefined),,"inconclusive: 0.326 µM [activator, full curve]",
CCOC(=O)N1c2ccccc2C=CC1OCC (centres undefined),inconclusive: -0.242%,,
Cc1ccc(C(=O)NCCCC(=O)O)o1,inconclusive: -2.46%,,

# A different layout for 2 compounds above.
SMILES | lipid storage change, negative = inhibition | Potency | outcome
CCN(CC)c1ccc2cc(NC(=O)CCC(=O)O)c(=O)oc2c1 | inconclusive: 10.6% |  | 
CCCCc1c(C(=O)O)cc(OC)cc1C(=O)O | inconclusive: -4.01% |  | 
